Source: patent US11578085B2, “Heterocycle-substituted bicyclic azole pesticides” (FMC CORPORATION, priority 2013, dated 2023)
Some of these results come from one statement about several compounds together. At least one structure is not confirmed: it was looked up by name or label, or the drawing left a doubt.

Test system: green peach aphid (Myzus persicae (Sulzer))
Assay: Test C: control of green peach aphid on radish plant (spray, contact and/or systemic)
Format: in vivo
Conditions: assessed after 6 days
Method: Test compounds were formulated using a solution containing 10% acetone, 90% water and 300 ppm X-77® Spreader Lo-Foam Formula non-ionic surfactant containing alkylarylpolyoxyethylene, free fatty acids, glycols and isopropanol (Loveland Industries, Inc. Greeley, Colo., USA). The formulated compounds were applied in 1 mL of liquid through a SUJ2 atomizer nozzle with 1/8 JJ custom body (Spraying Systems Co. Wheaton, Ill., USA) positioned 1.27 cm (0.5 inches) above the top of each test unit. Test compounds were sprayed at the rates indicated, and each test was replicated three times.
For evaluating control of green peach aphid (Myzus persicae (Sulzer)) through contact and/or systemic means, the test unit consisted of a small open container with a 12-15-day-old radish plant inside. This was pre-infested by placing on a leaf of the test plant 30-40 aphids on a piece of leaf excised from a culture plant (cut-leaf method). The aphids moved onto the test plant as the leaf piece desiccated. After pre-infestation, the soil of the test unit was covered with a layer of sand.
Test compounds were formulated and sprayed at 250 and/or 50 ppm. After spraying of the formulated test compound, each test unit was allowed to dry for 1 hour and then a black, screened cap was placed on top. The test units were held for 6 days in a growth chamber at 19-21° C. and 50-70% relative humidity. Each test unit was then visually assessed for insect mortality.

CCCCNC(=O)c1ccc2nn(-c3cccnc3)cc2c1 [Compound 354]
mortality (sprayed at 50 ppm): at least 80% | mortality (sprayed at 250 ppm): at least 80%

COC(=O)NNC(=O)c1cccc2nc(-c3cccnc3)sc12 [Compound 162]
mortality (sprayed at 50 ppm): at least 80% | mortality (sprayed at 250 ppm): at least 80%

O=C(NCC1CC1)c1ccc2nn(-c3cccnc3)cc2c1 [Compound 53]
mortality (sprayed at 50 ppm): at least 80% | mortality (sprayed at 250 ppm): at least 80%

N#CCNC(=O)c1ccc2nn(-c3cccnc3)cc2c1 [Compound 49]
mortality (sprayed at 50 ppm): at least 80% | mortality (sprayed at 250 ppm): at least 80%

c1cnc(-c2ccc3nn(-c4cccnc4)cc3c2)nc1 [Compound 320]
mortality (sprayed at 50 ppm): at least 80% | mortality (sprayed at 250 ppm): at least 80%

COC(CNC(=O)c1cccc2nn(-c3cccnc3)cc12)OC [Compound 10]
mortality (sprayed at 50 ppm): at least 80% | mortality (sprayed at 250 ppm): at least 80%

O=C(NCC(F)F)c1ccc2nn(-c3cccnc3)cc2c1 [Compound 343]
mortality (sprayed at 50 ppm): at least 80% | mortality (sprayed at 250 ppm): at least 80%

c1cncc(-c2nc(-c3ccc4nn(-c5cccnc5)cc4c3)no2)c1 [Compound 322]
mortality (sprayed at 50 ppm): at least 80% | mortality (sprayed at 250 ppm): at least 80%

Cc1noc(-c2ccc3nc(-c4cccnc4)sc3c2)n1 [Compound 114]
mortality (sprayed at 250 ppm): at least 80%

CN(CC1CC1(F)F)C(=O)c1ccc2nn(-c3cccnc3)cc2c1 (stereo not drawn) [Compound 329]
mortality (sprayed at 50 ppm): at least 80% | mortality (sprayed at 250 ppm): at least 80%

CCCN(C)C(=O)c1ccc2nn(-c3cccnc3)cc2c1 [Compound 346]
mortality (sprayed at 50 ppm): at least 80% | mortality (sprayed at 250 ppm): at least 80%

CCNC(=O)c1ccc2nc(-c3cncc(F)c3)sc2c1 [Compound 124]
mortality (sprayed at 50 ppm): at least 80% | mortality (sprayed at 250 ppm): at least 80%

CC(C)(C)C(=O)NNC(=O)c1ccc2nn(-c3cccnc3)cc2c1 [Compound 376]
mortality (sprayed at 50 ppm): at least 80% | mortality (sprayed at 250 ppm): at least 80%

O=C(Nc1ncccn1)c1ccc2nn(-c3cccnc3)cc2c1 [Compound 26]
mortality (sprayed at 50 ppm): at least 80% | mortality (sprayed at 250 ppm): at least 80%

CCCN(CC1CC1)C(=O)c1ccc2nc(-c3cccnc3)oc2c1 [Compound 442]
mortality (sprayed at 250 ppm): at least 80%

O=C(NCC1OCCO1)c1ccc2nc(-c3cccnc3)sc2c1 [Compound 98]
mortality (sprayed at 250 ppm): at least 80%

CCSCCNC(=O)c1ccc2nn(-c3cccnc3)cc2c1 [Compound 46]
mortality (sprayed at 50 ppm): at least 80% | mortality (sprayed at 250 ppm): at least 80%

O=C(NCc1ccccn1)c1ccc2nc(-c3cccnc3)sc2c1 [Compound 106]
mortality (sprayed at 250 ppm): at least 80%

O=C(NCc1ccco1)c1ccc2nn(-c3cccnc3)cc2c1 [Compound 60]
mortality (sprayed at 50 ppm): at least 80% | mortality (sprayed at 250 ppm): at least 80%

O=C(c1ccc2nc(-c3cncc(F)c3)sc2c1)N1CCCC1 [Compound 125]
mortality (sprayed at 50 ppm): at least 80% | mortality (sprayed at 250 ppm): at least 80%

c1cnc(-c2cccc(-c3cccc4nn(-c5cccnc5)cc34)n2)nc1 [Compound 20]
mortality (sprayed at 250 ppm): at least 80%

COC(=O)NNC(=O)c1ccc2nc(-c3cccnc3)oc2c1 [Compound 448]
mortality (sprayed at 50 ppm): at least 80% | mortality (sprayed at 250 ppm): at least 80%

O=C(NCc1ncccn1)c1ccc2nc(-c3cccnc3)sc2c1 [Compound 118]
mortality (sprayed at 250 ppm): at least 80%

O=C(NN1CCCCC1)c1cccc2nn(-c3cccnc3)cc12 [Compound 15]
mortality (sprayed at 250 ppm): at least 80%

C[C@@H](NC(=O)c1ccc2nc(-c3cccnc3)sc2c1)C(=O)NC(C)(C)C [Compound 92]
mortality (sprayed at 250 ppm): at least 80%

c1cncc(-n2cc3cc(-n4cccn4)ccc3n2)c1 [Compound 27]
mortality (sprayed at 50 ppm): at least 80% | mortality (sprayed at 250 ppm): at least 80%

O=C(c1ccc2nn(-c3cccnc3)cc2c1)N1CCOCC1 [Compound 44]
mortality (sprayed at 250 ppm): at least 80%

COc1cncc(-n2cc3cc(C(=O)NCc4ncccn4)ccc3n2)c1 [Compound 364]
mortality (sprayed at 250 ppm): at least 80%

FC(F)(F)c1ccn(-c2ccc3nc(-c4cccnc4)sc3c2)n1 [Compound 86]
mortality (sprayed at 50 ppm): at least 80% | mortality (sprayed at 250 ppm): at least 80%

O=C(Nc1ccccn1)c1ccc2nn(-c3cccnc3)cc2c1 [Compound 28]
mortality (sprayed at 50 ppm): at least 80% | mortality (sprayed at 250 ppm): at least 80%

O=C(NCc1cncnc1)c1ccc2nn(-c3cncc(F)c3)cc2c1 [Compound 374]
mortality (sprayed at 50 ppm): at least 80% | mortality (sprayed at 250 ppm): at least 80%

COC(CNC(=O)c1ccc2nc(-c3cccnc3)oc2c1)OC [Compound 445]
mortality (sprayed at 50 ppm): at least 80% | mortality (sprayed at 250 ppm): at least 80%

CC(NC(=O)c1ccc2nn(-c3cccnc3)cc2c1)C(F)(F)F (stereo not drawn) [Compound 411]
mortality (sprayed at 50 ppm): at least 80% | mortality (sprayed at 250 ppm): at least 80%

O=C(NC1CCCCNC1=O)c1ccc2nc(-c3cccnc3)sc2c1 (stereo not drawn) [Compound 100]
mortality (sprayed at 250 ppm): at least 80%

CCNC(=O)CNC(=O)CNC(=O)c1ccc2nc(-c3cccnc3)sc2c1 [Compound 102]
mortality (sprayed at 250 ppm): at least 80%

O=C(NCC(F)(F)F)c1cccc2nc(-c3cccnc3)sc12 [Compound 78]
mortality (sprayed at 50 ppm): at least 80% | mortality (sprayed at 250 ppm): at least 80%

C#CCNC(=O)c1ccc2nn(-c3cccnc3)cc2c1 [Compound 404]
mortality (sprayed at 50 ppm): at least 80% | mortality (sprayed at 250 ppm): at least 80%

CCOCCNC(=O)c1ccc2nn(-c3cccnc3)cc2c1 [Compound 332]
mortality (sprayed at 50 ppm): at least 80% | mortality (sprayed at 250 ppm): at least 80%

O=C(NCC1CCCO1)c1ccc2nn(-c3cccnc3)cc2c1 (stereo not drawn) [Compound 173]
mortality (sprayed at 250 ppm): at least 80%

O=C(NCc1cccc(Br)n1)c1ccc2nn(-c3cccnc3)cc2c1 [Compound 56]
mortality (sprayed at 50 ppm): at least 80% | mortality (sprayed at 250 ppm): at least 80%

CC(C)OCCNC(=O)c1ccc2nn(-c3cccnc3)cc2c1 [Compound 333]
mortality (sprayed at 50 ppm): at least 80% | mortality (sprayed at 250 ppm): at least 80%

CSCCNC(=O)c1ccc2nc(-c3cncc(F)c3)sc2c1 [Compound 121]
mortality (sprayed at 50 ppm): at least 80% | mortality (sprayed at 250 ppm): at least 80%

FC(F)(F)c1ccn(-c2cccc3nn(-c4cccnc4)cc23)n1 [Compound 17]
mortality (sprayed at 50 ppm): at least 80% | mortality (sprayed at 250 ppm): at least 80%

O=C(NNC(=O)c1ccc2nn(-c3cccnc3)cc2c1)c1cccnc1 [Compound 400]
mortality (sprayed at 250 ppm): at least 80%

CCN(CC)C(=O)Nc1ccc2nc(-c3cccnc3)sc2c1 [Compound 117]
mortality (sprayed at 250 ppm): at least 80%

O=C(c1ccc2nn(-c3cccnc3)cc2c1)N1CCC1 [Compound 338]
mortality (sprayed at 50 ppm): at least 80% | mortality (sprayed at 250 ppm): at least 80%

O=C(NNC1CC1)c1ccc2nn(-c3cccnc3)cc2c1 [Compound 393]
mortality (sprayed at 250 ppm): at least 80%

O=C(NCC(F)(F)C(F)(F)F)c1ccc2nc(-c3cccnc3)oc2c1 [Compound 443]
mortality (sprayed at 50 ppm): at least 80% | mortality (sprayed at 250 ppm): at least 80%

O=C(NCC1CCCO1)c1cccc2nn(-c3cncc(F)c3)cc12 (stereo not drawn) [Compound 308]
mortality (sprayed at 50 ppm): at least 80% | mortality (sprayed at 250 ppm): at least 80%

CCN(C(=O)c1ccc2nn(-c3cccnc3)cc2c1)C1CCCCC1 [Compound 61]
mortality (sprayed at 250 ppm): at least 80%

O=C(NC1CCSC1=O)c1ccc2nn(-c3cccnc3)cc2c1 (stereo not drawn) [Compound 381]
mortality (sprayed at 250 ppm): at least 80%

CCNC(=O)[C@@H](C)NC(=O)c1ccc2nc(-c3cccnc3)sc2c1 [Compound 111]
mortality (sprayed at 250 ppm): at least 80%

CC1(C)CN(C(=O)c2ccc3nn(-c4cccnc4)cc3c2)C=N1 [Compound 74]
mortality (sprayed at 250 ppm): at least 80%

O=C(NCC(F)(F)F)c1ccc2nn(-c3cccnc3)cc2c1 [Compound 34]
mortality (sprayed at 50 ppm): at least 80% | mortality (sprayed at 250 ppm): at least 80%

CCN(CC)C(=O)c1ccc2nn(-c3cccnc3)cc2c1 [Compound 413]
mortality (sprayed at 50 ppm): at least 80% | mortality (sprayed at 250 ppm): at least 80%

O=C(NNC1CCCCC1)c1ccc2nn(-c3cccnc3)cc2c1 [Compound 363]
mortality (sprayed at 250 ppm): at least 80%

CCCNC(=O)c1ccc2nn(-c3cccnc3)cc2c1 [Compound 352]
mortality (sprayed at 50 ppm): at least 80% | mortality (sprayed at 250 ppm): at least 80%

O=C(c1ccc2nn(-c3cccnc3)cc2c1)N1CCCCC1 [Compound 36]
mortality (sprayed at 50 ppm): at least 80% | mortality (sprayed at 250 ppm): at least 80%

c1cnc(-c2cccc3nn(-c4cccnc4)cc23)nc1 [Compound 18]
mortality (sprayed at 50 ppm): at least 80% | mortality (sprayed at 250 ppm): at least 80%

O=C(NC1CC1)c1cccc2nc(-c3cccnc3)sc12 [Compound 163]
mortality (sprayed at 50 ppm): at least 80% | mortality (sprayed at 250 ppm): at least 80%

CSCCNC(=O)c1ccc2nn(-c3cccnc3)cc2c1 [Compound 57]
mortality (sprayed at 50 ppm): at least 80% | mortality (sprayed at 250 ppm): at least 80%

COCCCNC(=O)c1ccc2nn(-c3cccnc3)cc2c1 [Compound 335]
mortality (sprayed at 50 ppm): at least 80% | mortality (sprayed at 250 ppm): at least 80%

O=C(NCCC(F)(F)F)c1ccc2nc(-c3cccnc3)oc2c1 [Compound 449]
mortality (sprayed at 250 ppm): at least 80%

CC(C)NC(=S)NNC(=O)c1ccc2nn(-c3cccnc3)cc2c1 [Compound 416]
mortality (sprayed at 250 ppm): at least 80%

O=C(c1ccc2nn(-c3cccnc3)cc2c1)N1CCSCC1 [Compound 75]
mortality (sprayed at 50 ppm): at least 80% | mortality (sprayed at 250 ppm): at least 80%

O=C(NCc1ncccn1)c1ccc2nc(-c3cccnc3)oc2c1 [Compound 439]
mortality (sprayed at 250 ppm): at least 80%
